A short description of the test: Drug uptake in lysosomes of human Fa2N-4 cells assessed as inhibition of LysoTracker Red fluorescence after 30 mins. The format is ADME, cell-based, Lysosome. Conditions: Fa2N-4, 0.5 h.

For `CC(C)NCC(O)COc1cccc2ccccc12` (stereo unspecified) [PROPRANOLOL], the IC50 was determined as 92 µM.

Broadly, the IC50 is the point on the concentration scale where inhibition reaches its midpoint.

The record behind these values is ChEMBL document CHEMBL3525994, “Lysosomal sequestration (trapping) of lipophilic amine (cationic amphiphilic) drugs in immortalized human hepatocytes (Fa2N-4 cells)” (Drug Metab Dispos, 2013).
